The chains behind the UniProt entries cited, without tags or fusion partners.
UniProt P40763: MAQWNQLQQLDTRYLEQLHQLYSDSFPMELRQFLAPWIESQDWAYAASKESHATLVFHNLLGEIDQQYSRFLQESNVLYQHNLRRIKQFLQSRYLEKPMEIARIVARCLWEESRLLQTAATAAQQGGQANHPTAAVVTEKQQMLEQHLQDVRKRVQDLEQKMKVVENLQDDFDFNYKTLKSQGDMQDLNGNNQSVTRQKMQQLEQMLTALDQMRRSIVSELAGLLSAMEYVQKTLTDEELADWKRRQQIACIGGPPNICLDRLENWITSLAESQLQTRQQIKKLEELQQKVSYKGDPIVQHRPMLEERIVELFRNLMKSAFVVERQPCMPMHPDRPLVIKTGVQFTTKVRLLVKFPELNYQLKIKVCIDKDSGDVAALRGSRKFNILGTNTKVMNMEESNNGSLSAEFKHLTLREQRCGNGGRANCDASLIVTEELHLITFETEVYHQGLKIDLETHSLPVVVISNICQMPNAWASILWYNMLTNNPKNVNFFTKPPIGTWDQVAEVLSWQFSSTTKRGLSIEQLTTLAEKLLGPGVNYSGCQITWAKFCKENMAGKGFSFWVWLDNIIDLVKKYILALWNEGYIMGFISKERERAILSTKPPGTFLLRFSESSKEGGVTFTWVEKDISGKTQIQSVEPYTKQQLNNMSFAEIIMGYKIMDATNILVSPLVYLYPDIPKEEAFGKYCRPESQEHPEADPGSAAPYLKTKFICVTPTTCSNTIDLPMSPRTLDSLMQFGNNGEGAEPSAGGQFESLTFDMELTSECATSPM

In publication PMC11165011:

Molecular target: T1, HA-tagged PRTN3 (Proteinase 3), full length (human) (UniProt P24158)
T1 sequence: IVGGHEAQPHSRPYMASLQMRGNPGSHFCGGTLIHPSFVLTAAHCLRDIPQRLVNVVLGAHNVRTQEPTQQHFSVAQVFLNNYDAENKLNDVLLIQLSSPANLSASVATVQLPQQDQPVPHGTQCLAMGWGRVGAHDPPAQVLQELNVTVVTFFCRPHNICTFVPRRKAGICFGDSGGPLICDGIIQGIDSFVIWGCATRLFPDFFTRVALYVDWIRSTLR
Assay: affinity purification with mass spectrometry; HEK293T cells transfected with HA-PRTN3; lysate precipitated with anti-HA overnight at 4 °C and protein A/G beads; RPLC/MS (TripleTOF 6600)

## STAT3, endogenous in HEK293T cells (from UniProt P40763 1-770)
  binding: binds

Results are given in words; binding and its absence hold for the method and conditions named. In cells and extracts the contact can be indirect. Here binding means that the protein was enriched with, or labelled near, the bait; the list need not be complete. Where a sequence is shown, tags or fusion partners need not be part of it.
